Results from patent publication US20240358829A1, “Lymphocyte Population and Methods for Producing Same” (AVM Biotechnology, LLC, priority 2021, published 2024).
“And” between values parts separate entries of the source, which are not always exact repeats. Equal entries are not always repeated. At least one structure is not confirmed: it was looked up by name or label, or the drawing left a doubt.

Tests used:
[1] = tested on: AVM-NKT cells (CD3highCD49b+); format: in vivo, mouse; conditions: naïve mice; for AVM-NKT cells in the blood: 48 hours after HED 18.1 mg/kg
Source text: Mice were anesthetized with isoflurane gas.

[2] = tested on: peripheral blood lymphocytes; assay: Lymphodepletion study in naïve mice (complete blood count, flow cytometry)
[3] = early onset and established diabetic NOD mice; described in PCT/US2021/019773; cited from earlier work
[4] = tested on: CCRF-CEM Xeno human T lymphoma; conditions: experiments described in PCT/US2021/019773; cited from earlier work
A20 B cell lymphoma [5] = tested on: A20 B cell lymphoma
Procedure: FIG. 10B. […] Mice were inoculated with A20 lymphoma 2×10^6 cells in 100 μL of PBS mixed with 100 μL of chilled Matrigel into their flank. Three, 24 and 48 hours later mice were euthanized and tumors, blood, bone marrow and thymus were taken and made into single cell suspensions for flow cytometry detection of live A20 cells.

[6] = tested on: AVM-NKT cells (CD45 dim, CD56 very bright); assay: Flow cytometry of human subjects treated with acute high doses of dexamethasone (Example 7); format: in vivo; conditions: osteoarthritis patients, 3-6 mg/kg, ~48 hours post treatment; one of four patients
[7] = tested on: peripheral blood T and B lymphocytes; conditions: cited from earlier work
A20 B cell lymphoma [8] = conditions: experiments described in PCT/US2021/019773; cited from earlier work
[9] = 18 mg/kg HED DP, 6, 24 and 48 hours, vs Placebo
[10] = single oral 0.24 mg/kg dose, Fauci et al (1976)

## C[C@H]1C[C@H]2[C@@H]3CCC4=CC(=O)C=C[C@]4(C)[C@@]3(F)[C@@H](O)C[C@]2(C)[C@@]1(O)C(=O)CO [betamethasone]
[1]
  AVM-NKT cells in the blood: appear in the blood

## C[C@@H]1C[C@H]2[C@@H]3CCC4=CC(=O)C=C[C@]4(C)[C@@]3(F)[C@@H](O)C[C@]2(C)[C@@]1(O)C(=O)CO [dexamethasone]
[2]; [9]
  Monocyte numbers: significantly reduced
  Neutrophil numbers: significantly reduced
[2]; 18 mg/kg HED DP, 6 and 24 hours, vs Placebo
  Total NKT cell numbers: reduced
[2]; 18 mg/kg HED DP, 6 hours to 21 days, vs Placebo
  B lymphocyte numbers: significantly reduced
[2]; 18 mg/kg HED DP, 6 hours to 21 days, vs Placebo, 18 mg/kg
  Absolute lymphocyte numbers (ALC minus NK and NKT cells): significantly reduced
[2]; 18 mg/kg HED DP, 48 hours
  Total NKT cell numbers: increased
[2]; 18 mg/kg HED DP, at 6 and 48 hours
  Absolute lymphocyte numbers (ALC minus NK and NKT cells): almost complete lymphoablation
[2]; high-dose dexamethasone
  T and B lymphocytes: selectively ablates
[3]
  hyperglycemia and diabetes: prevent hyperglycemia and reverse diabetes
[1]
  AVM-NKT cells in the blood: appear in the blood
[1]; one dose HED 18.1 mg/kg DP PO
  time AVM-NKT cells are evident in blood: remain evident in the blood stream until day 13 and 48 hours-13 days
[4]
  tumor killing effect: tumor killing effect
A20 B cell lymphoma [5]; A20 model
  Presence of AVM-NKT cells, 48 hrs blood: not present in peripheral blood
A20 B cell lymphoma [5]; HED 18 mg/kg DP, after 48 hours, vs placebo
  tumor necrosis: increased necrosis
A20 B cell lymphoma [5]; HED 18.1 mg/kg PO, repeat dosing, vs placebo
  growth of the A20 B cell lymphoma: significantly delay tumor growth
[6]
  cell population corresponding to AVM-NKT cells (CD45/CD56 scattergrams): emerged
[7]; PCT/US2019/054395
  acute oral dose necessary to reduce peripheral blood T and B cells 24-48 hours after administration: ≥ 3 mg/kg
  time of return to baseline levels after dosing: 5 to 14 days
[7]; [10]
  suppression of peripheral blood T and B lymphocytes: 80%
  time at which recovery begins: 12 h
  time to normal levels: ≤ 24 h
A20 B cell lymphoma [8]
  tumor killing effect: tumor killing effect
